Data as given in patent US20120195909A1 (BIONOVION HOLDING B V, published 2012).
These are yes or no findings as the source states them, for the method shown. Some entries that bind do so weakly or less than the wild type.

Chains of the proteins cited; added tags and fusions are not shown. Residues count along the entry.
UniProt O75888, residues 110-250: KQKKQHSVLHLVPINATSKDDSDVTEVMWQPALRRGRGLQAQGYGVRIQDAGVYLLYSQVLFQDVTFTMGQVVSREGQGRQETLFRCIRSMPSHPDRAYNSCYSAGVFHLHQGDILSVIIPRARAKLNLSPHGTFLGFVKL

Key:
[1] = molecular target: FLAG-hAPRIL (secreted form, supernatant of 293T cells transfected with pCR3-hAPRIL) (human) (UniProt O75888); experiment: ELISA, purified antibody, FLAG-hAPRIL captured by anti-FLAG antibody
[2] = molecular target: FLAG-hAPRIL (secreted form, supernatant of 293T cells transfected with pCR3-hAPRIL) (human) (UniProt O75888); experiment: ELISA, hybridoma supernatant, FLAG-hAPRIL captured by anti-FLAG antibody
[3] = molecular target: FLAG-hAPRIL (secreted form, supernatant of 293T cells transfected with pCR3-hAPRIL) (human) (UniProt O75888); experiment: ELISA, FLAG-hAPRIL captured by coated anti-FLAG antibody, purified antibody titrated
[4] = molecular target: FLAG-hAPRIL (secreted form, supernatant of 293T cells transfected with pCR3-hAPRIL) (human) (UniProt O75888); experiment: ELISA, FLAG-hAPRIL captured by coated anti-FLAG antibody, hybridoma supernatant titrated neat to 1:128
[5] = molecular target: FLAG-hAPRIL (secreted form, supernatant of 293T cells transfected with pCR3-hAPRIL) (human) (UniProt O75888); experiment: blocking ELISA, FLAG-hAPRIL pre-incubated with titrated antibody, binding to coated BCMA-Fc detected with anti-FLAG
[6] = molecular target: FLAG-hAPRIL (secreted form, supernatant of 293T cells transfected with pCR3-hAPRIL) (human) (UniProt O75888); experiment: blocking ELISA, FLAG-hAPRIL pre-incubated with titrated antibody, binding to coated TACI-Fc detected with anti-FLAG
[7] = molecular target: FLAG-hAPRIL (secreted form, supernatant of 293T cells transfected with pCR3-hAPRIL) (human) (UniProt O75888); experiment: blocking ELISA, FLAG-hAPRIL pre-incubated with hybridoma supernatant, binding to adsorbed BCMA-Fc detected with anti-FLAG
[8] = molecular target: FLAG-hAPRIL (secreted form, supernatant of 293T cells transfected with pCR3-hAPRIL) (human) (UniProt O75888); experiment: blocking ELISA, FLAG-APRIL supernatant pre-mixed with titrated antibody, binding to BCMA-Fc coated at 1 µg/ml detected with anti-Flag-HRP [left graph]
[9] = molecular target: FLAG-hAPRIL (secreted form, supernatant of 293T cells transfected with pCR3-hAPRIL) (human) (UniProt O75888); experiment: blocking ELISA, FLAG-APRIL supernatant pre-mixed with titrated antibody, binding to BCMA-Fc coated at 1 µg/ml detected with anti-Flag-HRP [right graph]
[10] = molecular target: FLAG-hAPRIL (secreted form, supernatant of 293T cells transfected with pCR3-hAPRIL) (human) (UniProt O75888); experiment: blocking ELISA, FLAG-APRIL supernatant pre-mixed with titrated antibody, binding to coated TACI-Fc (sheet: coated at 1 µg/ml) detected with anti-Flag-HRP [left graph]
[11] = molecular target: FLAG-hAPRIL (secreted form, supernatant of 293T cells transfected with pCR3-hAPRIL) (human) (UniProt O75888); experiment: blocking ELISA, FLAG-APRIL supernatant pre-mixed with titrated antibody, binding to coated TACI-Fc (sheet: coated at 1 µg/ml) detected with anti-Flag-HRP [right graph]

- binding [1]: binds
- binding [2]: binds
- binding [3]: binds
- binding [4]: binds
- binding [5]: binds
- binding [6]: binds
- binding [7]: binds
- binding [8]: binds
- binding [9]: binds
- binding [10]: binds
- binding [11]: binds
B1: hAPRIL.01A (antibody, IgG1, V domains shown)
VH: EVQLQQSGPELVKPGASVKMSCKASGYTFTSYVMHWVKQKPGQGLEWIGYINPYNDAPKYNEKFKGKATVTSDKSSGTAYMELSSLTSEDSAVYYCARGLGYALYYAMDYWGQGTSVTVSS
VL: DIVMTQSQKFKSTSVGDRVSVTCKASQNVGNNVAWYQQKAGQSPKALISSASNRDSGVPDRFTGSGSGTDFTLTISNVQSEDLADYFCQQYNIYPFTFGSGTELEIK
notes: Mouse antibody from a hybridoma, IgG1, kappa
